Laboratory results published in publication PMC10163288.
Some of the results follow.

B1: il2ra_site2_2erj_sap_25_mot_HHH_b2_04462_000000161_0001_43_56_H_._HHH_b1_00464_af2_0001_0000100003_0000001_0_0001 (protein)
chain: SSSSSEEVEELIEEARELIEEGDPEKALEVLREAFHRAYELNDLELFSRLAELTHEIARALSSSS
B2: il2ra_site1_2b5i_normal_mot_HHH_b2_08221_000000034_0001_1_18_H_._HHH_b1_05421_af2_0001_0000100001_0000001_0_af2pred_dldesign_0_af2pred (protein)
chain: SSSSSKVRALLERIEELAKRYEETGDPSLIEEIKKLVEELKKLGCNAAVKFAELAIKQLLESSSS
B3: il2ra_site1_1z92_normal_mot_b1fbee8209167eaadba3689d49187f1a_0001_1_af2_000000018_0001_16_31_H_._9e622f7d73aa0ff91040b48e8c7f7504_0001_1_0001_0000100009_0000001 … (protein)
chain: DEEEAEELLREILKENGSKEALERDLEQAERALGDPKLALKALIRIALQIYGDPRLEEAEQLVRK
B4: il2ra_site2_3nfp_normal_mot_HHH_b2_07840_000000026_0001_18_34_H_._HHH_b2_04827_0001_0000100003_0000001_0 (protein)
chain: SSSSDEEVERLLEEAERALEEGDREEARQILARAALLAFELRDHELFALVQDVMELIIRRSSSSS
B5: il2ra_site2_3nfp_normal_mot_HHH_b1_05785_af2_000000002_0001_41_57_H_._HHH_b1_03527_af2_0001_0000800015_0000001_0 (protein)
chain: SSSSDEAEEYVKAALALLEEALEQGDEELFEKLARLIELAIEDLGNPELEERLEELKERGSSSSS
B6: il2ra_site1_2b5i_sap_14_mot_HHH_b2_03242_af2_000000120_0001_1_19_H_._ems_p1-14H-GBL-16H-GABBL-15H_0264_0001_0001_0001_0001_0000200016_0000001_1_0001 (protein)
chain: DLMKRVVRAVLKIIWRAGVPRITVRNNDGEVRVTIHGDDEAARAAEELIREVAEELNANVEVTVE
B7: il2ra_site1_2b5i_sap_9_mot_HHH_b1_07759_af2_000000221_0001_42_56_H_._HHH_b2_06866_af2_0001_0000600029_0000001_0_0001_af2pred_dldesign_0_af2pred (protein)
chain: SSSSSSSYRELVEALIEKAKKEEDPLLRNKILTLARRVARKGEDPELIARVEALREELSSSSSSS
B8: il2ra_site1_1z92_normal_mot_0d89ad2be31940e41b8548213a5e2889_0001_000000090_0001_19_33_H_._0157305b669e031816377e0677f95be5_0001_af2_0001_0000300022_0000001_0_a … (protein)
chain: SEVAELIEKALEEKDPRLLEEAVKILAEKLNIPPEKAKRFLERLIKVNHPPEEQEILEELAKRVP
B9: il2ra_site2_3nfp_sap_17_mot_0136b98644bc9a8eb58b95019b738ebb_0001_1_000000071_0001_1_13_H_._HHH_b1_06685_af2_0001_0000200005_0000001_1_0001 (protein)
chain: SSSSSELEEYIRAALALLRLAIEEGDPFAARELIEAIRAAVEAAGNEELERELEELEEELDSSSS
B10: il2ra_site2_2erj_sap_1_mot_09e7cb7e633bb54c4420ff763e5edef5_0001_000000268_0001_36_50_H_._HHH_b2_05571_0001_0000200008_0000001_0_0001_af2pred_0001_af2pred (protein)
chain: SSSSDLKERVLRLAEEVEELLKRGDEEEAERVIEEIEELAEKRKSPSLRLALEHAREALKTSSSS
B11: il2ra_site1_3nfp_normal_mot_HHH_b2_02066_af2_000000034_0001_1_16_H_._HHH_b2_03896_af2_0001_0000500054_0000001_0_af2pred_0001_af2pred_1 (protein)
chain: SSSSSELAKRIQELLEQVRELKRNGNPEEAREVLEEARKLAEELGDEAAKRLIERIEKALNSSSS
B12: il2ra_site1_3nfp_sap_13_mot_311205a5f7018ed2e03f51fd3ffd5b95_0001_af2_000000228_0001_32_48_H_._c607dfab87a151aea9e7d1f821f406b9_0001_0001_0000200009_0000001_1_0 … (protein)
chain: SSDEYFERLVERVTKLAEEKNDEEVEELAKRALELWKEALENQDSEAADEAIRIVARLQNRVQSS
B13: il2ra_site1_3nfp_normal_mot_3a6c29ce16e7a142d506a79bd9648f85_0001_1_af2_000000100_0001_17_31_H_._1b0870e2a35aab0289d4b93f27226a6f_0001_af2_0001_0000800013_00000 … (protein)
chain: TAVERLVRLLAKDGVPPEEIAERLYEDAEKVGNLEALEEELEELVKKTGDPTLKRILEVLEELVR
B14: il2ra_site2_2erj_sap_16_mot_HHH_b2_01090_af2_000000277_0001_23_39_H_._bd5262115ee662b976c7de79e023da4f_0001_1_0001_0000200007_0000001_0_0001 (protein)
chain: SSSSSSAMEAFRIVSELTEEFNLDWKQAHALFELAKRLLEEGFSEEEIREILEELAERLSSSSSS
B15: il2ra_site1_2b5i_normal_mot_a7d4ab743ae57deeac5d741f7278d18b_0001_af2_000000162_0001_36_49_H_._HHH_b1_06628_af2_0001_0000100003_0000001_0_af2pred_dldesign_0_af2 … (protein)
chain: SSSSDPAAEALAETVAALRAAAAAGDEVLLHKVLKLGLKRLRRLGAPEAAAALEALAAELSSSSS
B16: il2ra_site2_2erj_sap_15_mot_HHH_b1_03833_000000078_0001_1_20_H_._HHH_b2_04583_af2_0001_0000400022_0000001_0_0001 (protein)
chain: SSSSDELHELYELANRIMHALANNDEEKVRELLEELRELIERFDSTTAREILETLEKHLGSSSSS
B17: il2ra_site2_3nfp_sap_11_mot_HHH_b2_05877_000000116_0001_23_40_H_._HHH_b1_03602_0001_0000300025_0000001_0_0001_af2pred_0001_af2pred (protein)
chain: SSSSSDDVEYAVNYAAALLQAGLVDEELAKRAAEFALKQLGVSEEEIEEAKEKIEEVARRSSSSS
B18: il2ra_site1_3nfp_sap_19_mot_HHH_b2_06897_000000190_0001_40_57_H_._71be647701ff1b2f9c0375d933d1ad3f_0001_0001_0000300018_0000001_0_0001 (protein)
chain: DKQLEERLERLLGDPEKAREVLRLIVRIAVEHNVPPREAVEILIEEAKEEGDELTLKAAELLLRF
B19: il2ra_site1_3nfp_normal_mot_HHH_b2_02552_af2_000000235_0001_1_20_H_._HHH_b1_03251_af2_0001_0000100005_0000001_0_af2pred_0001_af2pred_1_swapped (protein)
chain: SSSSDEESEEFLEEVKEQLEELLRRGDIREASEVVERAIRFLQKKGNPELVEELLKFAHELSSSS

molecular target: il2ra, P01589; assay: yeast display titration

Apparent Kd, inactive:
B1 no binding seen
B2 no binding seen
B3 no binding seen
B4 no binding seen
B5 no binding seen
B6 no binding seen
B7 no binding seen
B8 no binding seen
B9 no binding seen
B10 no binding seen
B11 no binding seen
B12 no binding seen
B13 no binding seen
B14 no binding seen
B15 no binding seen
B16 no binding seen
B17 no binding seen
B18 no binding seen
B19 no binding seen

Reprinted at random: 2 entries already listed.
Apparent Kd, inactive:
B14 no binding seen
B10 no binding seen
